Results published in patent US9878999B2, “Proteasome chymotrypsin-like inhibition using PI-1833 analogs” (H. Lee Moffitt Cancer Center and Research Institute, Inc., priority 2011, dated 2018).

Biological target: CT-L activity of purified 20S proteasome (Homo sapiens, UniProt P20618+P28074)
Test: in vitro CT-L activity of purified 20S proteasome
Format: biochemical
Details: for IC50: read-out: IC50 (μM) Chymotrypsin-like activity, Table 4

IC50	CT-L inhibitory activity, in words	SMILES
0.32 µM	–	Cc1ccc(OCC(=O)N(Cc2nc(-c3ccccc3)no2)C(C)C)cc1
0.86 µM	–	CC(C)N(Cc1nc(-c2ccc(Cl)cc2)no1)C(=O)COc1ccc(C(F)(F)F)cc1
2.05 µM	–	CC(C)N(Cc1nc(-c2ccc(C(F)(F)F)cc2)no1)C(=O)COc1ccc(C(F)(F)F)cc1
–	loss of CT-L proteasome activity	CCN(Cc1nc(-c2ccc(C)cc2)no1)C(=O)COc1ccc(C)cc1

The match of structure and compound is tentative.
